No constants are given. Whether binding was seen depends on the method and setting. Binding seen in cells or lysates may run through a third protein. Some entries that bind do so weakly or less than the wild type. For some assays here: Sequences can lack the tags named with a protein.
How the values were obtained:
[1] = biological target: PHF2 (overexpressed in HEK293T) (human) (UniProt O75151); test: co-IP; HEK293T transfected with PHF2 and HP1BP3-HA vectors; IPH buffer (50 mM Tris-HCl pH 7.5, 150 mM NaCl, 5 mM EDTA, 0.5% NP-40); PHF2 immunoprecipitated with PHF2 antibody overnight at 4 °C, immunoblot with HA antibody; IgGs as negative control
[2] = biological target: PHF2 (overexpressed in HEK293T) (human) (UniProt O75151); test: co-IP; CoIP of PHF2 and SUV39H1 (Appendix Fig. S1B); cells, constructs and antibodies not shown

Protein sequences, listed by entry. Tags and fused reporters are not part of them.
UniProt O75151: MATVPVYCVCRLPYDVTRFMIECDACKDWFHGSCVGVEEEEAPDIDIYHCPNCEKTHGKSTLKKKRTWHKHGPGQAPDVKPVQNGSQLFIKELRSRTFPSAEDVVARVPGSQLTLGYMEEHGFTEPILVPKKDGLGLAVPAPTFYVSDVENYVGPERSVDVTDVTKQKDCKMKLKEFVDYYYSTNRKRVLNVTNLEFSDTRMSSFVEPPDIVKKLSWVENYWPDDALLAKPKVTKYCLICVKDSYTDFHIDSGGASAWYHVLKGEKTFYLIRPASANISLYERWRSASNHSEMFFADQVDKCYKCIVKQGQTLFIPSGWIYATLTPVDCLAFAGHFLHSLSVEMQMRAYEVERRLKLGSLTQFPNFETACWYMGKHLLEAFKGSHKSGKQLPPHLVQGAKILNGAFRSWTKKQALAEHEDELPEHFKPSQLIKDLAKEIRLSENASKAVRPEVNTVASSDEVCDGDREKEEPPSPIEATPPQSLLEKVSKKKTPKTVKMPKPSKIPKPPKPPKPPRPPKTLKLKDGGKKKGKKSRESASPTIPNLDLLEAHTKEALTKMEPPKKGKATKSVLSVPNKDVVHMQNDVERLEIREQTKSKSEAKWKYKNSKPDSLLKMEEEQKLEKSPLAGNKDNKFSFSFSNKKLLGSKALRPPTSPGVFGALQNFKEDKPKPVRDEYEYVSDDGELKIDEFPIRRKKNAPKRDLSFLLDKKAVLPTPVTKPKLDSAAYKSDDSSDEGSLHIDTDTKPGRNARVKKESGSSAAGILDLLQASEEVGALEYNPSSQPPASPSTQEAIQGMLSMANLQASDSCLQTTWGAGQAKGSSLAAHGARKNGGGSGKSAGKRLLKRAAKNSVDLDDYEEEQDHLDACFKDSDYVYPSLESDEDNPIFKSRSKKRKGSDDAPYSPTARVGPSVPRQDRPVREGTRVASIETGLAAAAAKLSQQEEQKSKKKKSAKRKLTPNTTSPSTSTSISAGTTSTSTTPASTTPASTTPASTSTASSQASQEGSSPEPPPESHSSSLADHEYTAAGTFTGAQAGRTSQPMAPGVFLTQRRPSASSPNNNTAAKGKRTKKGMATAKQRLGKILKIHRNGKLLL

B1: HP1BP3-HA (protein, UniProt Q5SSJ5 1-553)
chain: MATDTSQGELVHPKALPLIVGAQLIHADKLGEKVEDSTMPIRRTVNSTRETPPKSKLAEGEEEKPEPDISSEESVSTVEEQENETPPATSSEAEQPKGEPENEEKEENKSSEETKKDEKDQSKEKEKKVKKTIPSWATLSASQLARAQKQTPMASSPRPKMDAILTEAIKACFQKSGASVVAIRKYIIHKYPSLELERRGYLLKQALKRELNRGVIKQVKGKGASGSFVVVQKSRKTPQKSRNRKNRSSAVDPEPQVKLEDVLPLAFTRLCEPKEASYSLIRKYVSQYYPKLRVDIRPQLLKNALQRAVERGQLEQITGKGASGTFQLKKSGEKPLLGGSLMEYAILSAIAAMNEPKTCSTTALKKYVLENHPGTNSNYQMHLLKKTLQKCEKNGWMEQISGKGFSGTFQLCFPYYPSPGVLFPKKEPDDSRDEDEDEDESSEEDSEDEEPPPKRRLQKKTPAKSPGKAASVKQRGSKPAPKVSAAQRGKARPLPKKAPPKAKTPAKKTRPSSTVIKKPSGGSSKKPATSARKEVKLPGKGKSTMKKSFRVKK
binding [1]: binds

B2: SUV39H1 (protein, UniProt O43463 1-412)
chain: MAENLKGCSVCCKSSWNQLQDLCRLAKLSCPALGISKRNLYDFEVEYLCDYKKIREQEYYLVKWRGYPDSESTWEPRQNLKCVRILKQFHKDLERELLRRHHRSKTPRHLDPSLANYLVQKAKQRRALRRWEQELNAKRSHLGRITVENEVDLDGPPRAFVYINEYRVGEGITLNQVAVGCECQDCLWAPTGGCCPGASLHKFAYNDQGQVRLRAGLPIYECNSRCRCGYDCPNRVVQKGIRYDLCIFRTDDGRGWGVRTLEKIRKNSFVMEYVGEIITSEEAERRGQIYDRQGATYLFDLDYVEDVYTVDAAYYGNISHFVNHSCDPNLQVYNVFIDNLDERLPRIAFFATRTIRAGEELTFDYNMQVDPVDMESTRMDSNFGLAGLPGSPKKRVRIECKCGTESCRKYLF
binding [2]: binds
